Test results: the supplement of paper PMC10849652
The other results are listed elsewhere or left out.

Protein sequences, listed by entry. Tags and fused reporters are not part of them. Lines headed by an entry give the natural chain unless they say otherwise; changes in a name come on top.
UniProt Q9H497: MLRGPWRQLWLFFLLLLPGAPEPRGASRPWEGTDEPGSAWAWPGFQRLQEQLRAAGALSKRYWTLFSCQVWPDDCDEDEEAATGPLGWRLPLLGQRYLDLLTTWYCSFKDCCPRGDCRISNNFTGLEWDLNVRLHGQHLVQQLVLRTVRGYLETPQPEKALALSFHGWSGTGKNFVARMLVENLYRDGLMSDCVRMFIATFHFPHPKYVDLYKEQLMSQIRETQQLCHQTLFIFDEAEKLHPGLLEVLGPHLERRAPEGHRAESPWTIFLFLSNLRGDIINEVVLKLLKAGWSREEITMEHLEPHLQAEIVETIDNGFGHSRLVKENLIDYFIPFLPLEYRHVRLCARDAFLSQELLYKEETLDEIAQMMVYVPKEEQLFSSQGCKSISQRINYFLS
UniProt Q12933: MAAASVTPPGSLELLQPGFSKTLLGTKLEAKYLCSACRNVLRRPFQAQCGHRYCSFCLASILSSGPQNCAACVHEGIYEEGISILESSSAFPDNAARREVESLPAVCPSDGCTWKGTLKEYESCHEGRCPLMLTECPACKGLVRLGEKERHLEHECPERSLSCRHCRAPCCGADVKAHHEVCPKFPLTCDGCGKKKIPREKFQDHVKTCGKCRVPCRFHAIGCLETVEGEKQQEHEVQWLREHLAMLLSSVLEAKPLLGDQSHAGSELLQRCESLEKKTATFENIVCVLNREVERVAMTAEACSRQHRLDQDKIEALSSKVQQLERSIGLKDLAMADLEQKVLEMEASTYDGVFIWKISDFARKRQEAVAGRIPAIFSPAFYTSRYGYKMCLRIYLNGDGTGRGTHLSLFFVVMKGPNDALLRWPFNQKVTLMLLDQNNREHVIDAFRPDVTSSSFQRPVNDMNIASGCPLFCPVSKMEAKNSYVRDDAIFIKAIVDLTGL
UniProt Q9BQ61: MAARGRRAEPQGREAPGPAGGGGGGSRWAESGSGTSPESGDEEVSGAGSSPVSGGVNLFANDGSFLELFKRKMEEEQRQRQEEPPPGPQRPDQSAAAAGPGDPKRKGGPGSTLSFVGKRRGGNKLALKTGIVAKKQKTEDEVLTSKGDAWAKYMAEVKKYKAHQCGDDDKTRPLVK
UniProt O75648: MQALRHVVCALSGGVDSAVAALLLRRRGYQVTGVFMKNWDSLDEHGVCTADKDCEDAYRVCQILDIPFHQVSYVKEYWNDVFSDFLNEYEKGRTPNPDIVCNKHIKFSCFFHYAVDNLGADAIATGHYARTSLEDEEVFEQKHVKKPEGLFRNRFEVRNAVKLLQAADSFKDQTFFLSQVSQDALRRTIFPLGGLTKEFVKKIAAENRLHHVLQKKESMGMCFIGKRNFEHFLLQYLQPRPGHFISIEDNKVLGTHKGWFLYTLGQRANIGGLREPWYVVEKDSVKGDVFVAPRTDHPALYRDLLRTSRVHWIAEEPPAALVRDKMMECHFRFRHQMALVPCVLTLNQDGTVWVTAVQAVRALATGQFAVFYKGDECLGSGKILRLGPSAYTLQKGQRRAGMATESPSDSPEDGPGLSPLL
UniProt O96008: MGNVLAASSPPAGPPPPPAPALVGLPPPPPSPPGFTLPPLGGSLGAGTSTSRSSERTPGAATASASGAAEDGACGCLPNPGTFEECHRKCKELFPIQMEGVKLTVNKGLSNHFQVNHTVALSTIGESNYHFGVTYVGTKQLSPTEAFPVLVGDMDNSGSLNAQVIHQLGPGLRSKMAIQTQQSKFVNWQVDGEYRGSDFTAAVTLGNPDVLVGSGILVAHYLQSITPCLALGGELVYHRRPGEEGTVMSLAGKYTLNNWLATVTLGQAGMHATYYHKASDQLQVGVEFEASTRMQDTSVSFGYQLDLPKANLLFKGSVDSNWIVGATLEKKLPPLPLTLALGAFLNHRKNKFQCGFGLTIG
UniProt O75157: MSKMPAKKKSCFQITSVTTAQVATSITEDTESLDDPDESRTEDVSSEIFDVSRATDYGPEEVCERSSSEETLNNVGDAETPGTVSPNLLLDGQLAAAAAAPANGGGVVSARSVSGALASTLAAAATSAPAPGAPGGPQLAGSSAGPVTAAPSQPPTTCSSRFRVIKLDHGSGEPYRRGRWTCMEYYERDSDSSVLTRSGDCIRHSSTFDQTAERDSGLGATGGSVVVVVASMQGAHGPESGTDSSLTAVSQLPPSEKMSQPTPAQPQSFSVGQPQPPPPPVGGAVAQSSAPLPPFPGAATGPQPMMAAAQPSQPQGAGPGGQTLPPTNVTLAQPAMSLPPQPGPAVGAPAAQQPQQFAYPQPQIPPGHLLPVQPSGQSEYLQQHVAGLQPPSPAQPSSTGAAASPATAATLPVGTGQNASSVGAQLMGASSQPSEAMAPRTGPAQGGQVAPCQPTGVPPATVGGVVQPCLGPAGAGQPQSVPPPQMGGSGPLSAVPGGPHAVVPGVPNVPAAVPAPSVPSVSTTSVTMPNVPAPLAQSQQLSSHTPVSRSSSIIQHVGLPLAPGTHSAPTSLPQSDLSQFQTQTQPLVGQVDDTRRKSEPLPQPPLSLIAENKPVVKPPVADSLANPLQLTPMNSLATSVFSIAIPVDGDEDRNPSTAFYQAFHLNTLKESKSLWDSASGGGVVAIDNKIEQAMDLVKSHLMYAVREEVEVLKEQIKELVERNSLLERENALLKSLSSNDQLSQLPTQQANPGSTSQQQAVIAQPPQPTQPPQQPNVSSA
UniProt Q9NUP7: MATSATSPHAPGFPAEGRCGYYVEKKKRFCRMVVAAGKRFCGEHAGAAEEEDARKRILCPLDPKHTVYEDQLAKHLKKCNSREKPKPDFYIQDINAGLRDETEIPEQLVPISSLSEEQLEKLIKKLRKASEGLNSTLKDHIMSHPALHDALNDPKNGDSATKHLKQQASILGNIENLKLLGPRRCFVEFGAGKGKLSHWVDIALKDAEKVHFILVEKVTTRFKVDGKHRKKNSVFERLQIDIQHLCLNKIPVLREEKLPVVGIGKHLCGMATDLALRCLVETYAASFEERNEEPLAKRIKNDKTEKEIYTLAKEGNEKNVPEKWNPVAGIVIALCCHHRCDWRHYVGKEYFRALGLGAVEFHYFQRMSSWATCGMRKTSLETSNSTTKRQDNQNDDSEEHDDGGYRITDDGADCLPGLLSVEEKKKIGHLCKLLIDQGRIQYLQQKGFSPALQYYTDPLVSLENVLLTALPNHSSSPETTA
UniProt Q9P0U1: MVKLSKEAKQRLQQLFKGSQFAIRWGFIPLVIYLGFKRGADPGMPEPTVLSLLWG
UniProt Q8IUR0, whole entry, looked up: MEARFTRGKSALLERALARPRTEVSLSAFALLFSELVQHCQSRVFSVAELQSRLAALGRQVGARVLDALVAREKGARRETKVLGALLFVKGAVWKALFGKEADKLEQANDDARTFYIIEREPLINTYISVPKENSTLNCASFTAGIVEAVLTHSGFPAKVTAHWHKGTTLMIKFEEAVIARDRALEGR
UniProt P06753, whole entry, looked up: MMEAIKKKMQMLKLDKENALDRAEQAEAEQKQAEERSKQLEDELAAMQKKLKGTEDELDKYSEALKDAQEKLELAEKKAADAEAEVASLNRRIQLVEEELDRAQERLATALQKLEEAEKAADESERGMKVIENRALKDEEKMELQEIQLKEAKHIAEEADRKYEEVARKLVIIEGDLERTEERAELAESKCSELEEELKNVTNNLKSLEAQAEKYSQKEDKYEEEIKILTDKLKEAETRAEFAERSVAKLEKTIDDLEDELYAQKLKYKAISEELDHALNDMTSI
UniProt Q5JTV8: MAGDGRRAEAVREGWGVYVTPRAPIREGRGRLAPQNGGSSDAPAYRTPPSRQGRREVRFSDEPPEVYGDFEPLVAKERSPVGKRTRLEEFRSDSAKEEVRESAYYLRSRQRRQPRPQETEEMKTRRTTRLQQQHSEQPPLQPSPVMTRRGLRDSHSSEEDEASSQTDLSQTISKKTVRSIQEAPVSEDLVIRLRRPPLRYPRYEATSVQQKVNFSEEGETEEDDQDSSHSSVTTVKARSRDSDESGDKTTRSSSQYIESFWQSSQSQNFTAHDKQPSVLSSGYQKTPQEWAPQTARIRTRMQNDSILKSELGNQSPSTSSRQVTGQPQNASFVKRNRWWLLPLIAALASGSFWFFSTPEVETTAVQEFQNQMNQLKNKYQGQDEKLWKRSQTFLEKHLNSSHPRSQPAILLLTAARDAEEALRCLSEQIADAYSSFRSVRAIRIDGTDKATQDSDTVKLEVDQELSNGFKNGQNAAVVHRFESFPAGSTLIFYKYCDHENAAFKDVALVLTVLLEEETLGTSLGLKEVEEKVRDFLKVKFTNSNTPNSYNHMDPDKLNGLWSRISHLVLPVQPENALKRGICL
UniProt Q14134: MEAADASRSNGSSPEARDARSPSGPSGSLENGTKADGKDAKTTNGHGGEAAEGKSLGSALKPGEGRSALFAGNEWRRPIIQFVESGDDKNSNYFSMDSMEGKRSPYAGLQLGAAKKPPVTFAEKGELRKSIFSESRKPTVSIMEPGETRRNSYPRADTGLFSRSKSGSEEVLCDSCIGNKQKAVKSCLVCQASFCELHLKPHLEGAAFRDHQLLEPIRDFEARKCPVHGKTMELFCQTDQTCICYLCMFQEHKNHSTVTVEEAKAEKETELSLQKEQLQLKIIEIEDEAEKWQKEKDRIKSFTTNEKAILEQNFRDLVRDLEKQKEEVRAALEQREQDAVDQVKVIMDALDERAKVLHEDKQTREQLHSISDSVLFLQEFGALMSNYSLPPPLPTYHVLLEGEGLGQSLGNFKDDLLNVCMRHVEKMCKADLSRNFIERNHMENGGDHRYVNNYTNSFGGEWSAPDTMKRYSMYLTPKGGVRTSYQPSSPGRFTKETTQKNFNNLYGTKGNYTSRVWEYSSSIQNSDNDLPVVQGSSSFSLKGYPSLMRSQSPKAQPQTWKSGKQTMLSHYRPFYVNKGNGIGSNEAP
UniProt Q15650: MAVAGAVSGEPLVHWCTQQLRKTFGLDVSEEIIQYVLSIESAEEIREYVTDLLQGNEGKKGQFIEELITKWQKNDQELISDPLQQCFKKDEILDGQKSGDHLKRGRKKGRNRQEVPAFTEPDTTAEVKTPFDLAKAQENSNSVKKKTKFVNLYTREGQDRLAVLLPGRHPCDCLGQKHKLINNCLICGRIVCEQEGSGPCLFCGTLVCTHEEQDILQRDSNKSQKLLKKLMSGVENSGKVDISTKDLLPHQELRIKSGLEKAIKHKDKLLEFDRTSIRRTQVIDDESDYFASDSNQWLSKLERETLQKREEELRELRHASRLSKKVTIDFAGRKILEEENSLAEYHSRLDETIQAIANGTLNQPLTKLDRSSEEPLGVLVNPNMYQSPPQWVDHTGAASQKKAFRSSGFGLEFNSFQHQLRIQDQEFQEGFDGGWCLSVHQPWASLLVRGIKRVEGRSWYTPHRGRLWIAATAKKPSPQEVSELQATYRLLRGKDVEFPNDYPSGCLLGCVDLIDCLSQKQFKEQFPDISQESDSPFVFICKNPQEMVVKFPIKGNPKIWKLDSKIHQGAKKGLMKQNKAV
UniProt P09493, whole entry, looked up: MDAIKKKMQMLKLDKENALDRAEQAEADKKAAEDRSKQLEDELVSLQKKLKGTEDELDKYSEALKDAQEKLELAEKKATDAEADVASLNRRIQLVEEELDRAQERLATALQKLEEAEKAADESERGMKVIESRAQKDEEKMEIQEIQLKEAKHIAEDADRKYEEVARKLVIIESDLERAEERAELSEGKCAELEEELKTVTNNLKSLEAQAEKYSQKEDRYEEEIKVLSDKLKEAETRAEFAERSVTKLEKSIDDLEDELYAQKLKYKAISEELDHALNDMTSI
UniProt Q9Y5S1: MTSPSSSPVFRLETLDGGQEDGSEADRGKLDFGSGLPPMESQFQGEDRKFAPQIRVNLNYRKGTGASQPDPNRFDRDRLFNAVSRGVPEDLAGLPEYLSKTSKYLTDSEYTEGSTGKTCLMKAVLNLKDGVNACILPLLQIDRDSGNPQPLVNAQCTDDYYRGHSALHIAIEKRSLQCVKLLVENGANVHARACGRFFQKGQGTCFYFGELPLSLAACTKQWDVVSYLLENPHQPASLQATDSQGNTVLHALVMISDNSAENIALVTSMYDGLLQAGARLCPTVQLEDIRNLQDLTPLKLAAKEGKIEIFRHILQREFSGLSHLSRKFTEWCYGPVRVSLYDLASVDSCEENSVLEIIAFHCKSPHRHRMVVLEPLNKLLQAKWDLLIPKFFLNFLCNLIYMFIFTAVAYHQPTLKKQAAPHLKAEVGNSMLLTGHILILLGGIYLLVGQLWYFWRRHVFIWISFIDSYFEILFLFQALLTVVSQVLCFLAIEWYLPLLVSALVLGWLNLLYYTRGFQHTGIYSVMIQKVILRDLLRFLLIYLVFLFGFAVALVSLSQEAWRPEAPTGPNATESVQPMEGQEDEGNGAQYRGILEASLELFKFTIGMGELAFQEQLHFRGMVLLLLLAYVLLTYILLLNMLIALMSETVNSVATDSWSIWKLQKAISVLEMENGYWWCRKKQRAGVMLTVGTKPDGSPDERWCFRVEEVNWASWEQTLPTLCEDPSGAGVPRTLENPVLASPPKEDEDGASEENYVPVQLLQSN

What was measured:
Experiment in all cases: log2 fold change, soluble protein after heating vs DMSO (PISA); higher = thermal stabilisation; K562 cells, 10 uM, 30 min; active = over 0.2 and 3.5 SD of the protein, either way, in both replicates (recomputed)
[1] = compound: CC[C@@H]1C(=O)N(C)c2cnc(Nc3ccc(C(=O)NC4CCN(C)CC4)cc3OC)nc2N1C1CCCC1
In short: (§1)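 For each measurement, 10 μM compound was applied for 30 min to K562 cells at 2×10^6 cells/mL. Aliquots were heated for 3 min across 48°C-58°C, pooled, and extracted in PBS with 0.5% NP-40 at 4°C; the supernatant after 21,000xg for 90 min was soluble protein. This was quantified by TMTpro 16plex LC-MS/MS with channel sums equalised, and thermal stability was reported relative to control samples from duplicates, on a log2 fold-change scale.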

volasertib = compound: CC[C@@H]1C(=O)N(C)c2cnc(Nc3ccc(C(=O)N[C@H]4CC[C@H](N5CCN(CC6CC6)CC5)CC4)cc3OC)nc2N1C(C)C [volasertib]
In short: as §1

[2] = compound: CC[C@H](C)N1C=C(C2=C(C=C(C=C21)C3=CN=C(C=C3)N4CCNCC4)C(=O)NCC5=C(C=C(NC5=O)C)C)C
In short: as §1

epoxomicin = compound: CC[C@H](C)[C@@H](C(=O)N[C@@H]([C@@H](C)O)C(=O)N[C@@H](CC(C)C)C(=O)[C@]1(CO1)C)NC(=O)[C@H]([C@@H](C)CC)N(C)C(=O)C [epoxomicin]
In short: as §1

[3] = compound: CCn1c(C(=O)N(C2CC2)C2CC2)cc2c3c(ncn3C)c(Nc3cc(C)n(C)n3)nc21
In short: as §1

[4] = compound: CCn1cc(-c2ccnc3[nH]c(-c4cccc(CN(C)C)c4)cc23)c(-c2ccc(NC(=O)N(C)C)cc2)n1
In short: as §1

[5] = compound: CN(C)CC(=O)Nc1ccc2[nH]c(=O)c3ccccc3c2c1
In short: as §1

rosiglitazone = compound: CN(CCOC1=CC=C(C=C1)C[C@H]2C(=O)NC(=O)S2)C3=CC=CC=N3 (racemic) [rosiglitazone]
In short: as §1

[6] = compound: CN1C2=C(C3=C1C(=O)N(N=C3)CC4=CC(=CC=C4)N)SC(=C2)S(=O)C
In short: as §1

[7] = compound: CN1CCC(CNc2ccc3ncc(-c4cccc(OC(F)(F)F)c4)n3n2)CC1
In short: as §1

Measured: log2 fold change

TRMT1L (UniProt Q7Z2T5)
inactive: [1] 0.282 | volasertib 0.41 | [2] 0.045 | epoxomicin -0.36 | [3] 0.057 | [4] 0.179 | [5] -0.161 | rosiglitazone -0.153 | [6] 0.334 | [7] 0.335

TOX4 (UniProt O94842)
inactive: [1] 0.192 | volasertib 0.174 | [2] -0.036 | epoxomicin -0.194 | [3] -0.028 | [4] 0.161 | [5] -0.086 | rosiglitazone -0.065 | [6] 0.225 | [7] 0.167

TRIP13 (UniProt Q15645)
inactive: [1] -0.01 | volasertib -0.168 | [2] 0.036 | epoxomicin 0.017 | [3] 0.002 | [4] -0.067 | [5] 0.002 | rosiglitazone 0.046 | [6] -0.051 | [7] -0.211

TPST2 (UniProt O60704)
inactive: [1] -0.084 | volasertib -0.254 | [2] -0.027 | epoxomicin 0.041 | [3] -0.022 | [4] 0.072 | [5] 0.005 | rosiglitazone 0.031 | [6] 0.008 | [7] -0.035

TPRG1L (UniProt Q5T0D9)
inactive: [1] -0.251 | volasertib -0.268 | [2] -0.073 | epoxomicin 0.085 | [3] 0.107

TOR3A (UniProt Q9H497)
inactive: [1] 0.03 | volasertib -0.073 | [2] -0.02 | epoxomicin 0.012 | [3] 0.011 | [4] 0.024 | [5] -0.046 | rosiglitazone -0.017 | [6] 0.055 | [7] 0.015

TOR1AIP2 (UniProt Q8NFQ8)
inactive: [1] 0.03 | volasertib 0.028 | [2] 0.002 | epoxomicin 0.01 | [3] 0.06 | [4] 0.014 | [5] -0.023 | rosiglitazone -0.004 | [6] 0.009 | [7] 0.032

TRPT1 isoform 4 (UniProt Q86TN4)
inactive: [1] 0.084

TPX2 (UniProt Q9ULW0)
inactive: [1] 0.084 | volasertib 0.09 | [2] -0.006 | epoxomicin 0.047 | [3] 0.007 | [4] 0.079 | [5] -0.075 | rosiglitazone -0.044 | [6] 0.006 | [7] -0.021

TRAF2 (UniProt Q12933)
inactive: [1] 0.011 | volasertib -0.117 | [2] 0.017 | epoxomicin 0.045 | [3] -0.038 | [4] -0.002 | [5] 0.013 | rosiglitazone 0.034 | [6] -0.079 | [7] -0.017

TRIR (UniProt Q9BQ61)
inactive: [1] 0.027 | volasertib 0.092 | [2] -0.027 | epoxomicin -0.001 | [3] -0.018 | [4] 0.03 | [5] -0.056 | rosiglitazone -0.039 | [6] -0.031 | [7] 0.052

TRMU (UniProt O75648)
inactive: [1] -0.014 | volasertib -0.105 | [2] -0.022 | epoxomicin 0.059 | [3] -0.031 | [4] -0.043 | [5] 0.011 | rosiglitazone 0.026 | [6] -0.059 | [7] 0.007

TOMM40 (UniProt O96008)
inactive: [1] 0.038 | volasertib 0.017 | [2] -0.038 | epoxomicin 0.008 | [3] 0.004 | [4] -0.024 | [5] -0.007 | rosiglitazone 0.02 | [6] -0.039 | [7] 0.089

TOMM40L (UniProt Q969M1)
inactive: [1] 0.021 | volasertib 0.06 | [2] -0.099 | epoxomicin -0.005 | [3] 0.004 | [4] -0.059 | [5] 0.094 | rosiglitazone 0.395 | [6] -0.018 | [7] 0.081

TSC22D2 (UniProt O75157)
inactive: [1] 0.04 | volasertib 0.003 | [2] -0.115 | epoxomicin 0.026 | [3] 0.05 | [4] -0.042 | [5] -0.027 | rosiglitazone 0.025 | [6] 0.035 | [7] 0.014

TRAPPC10 (UniProt P48553)
inactive: [1] -0.034 | volasertib -0.144 | [2] 0.026 | epoxomicin -0.034 | [3] -0.024 | [4] -0.072 | [5] 0.007 | rosiglitazone 0.028 | [6] 0.008 | [7] 0

TPM4 isoform 2 (UniProt P67936)
inactive: [1] -0.044 | volasertib 0.021 | [2] -0.012 | epoxomicin 0.01 | [3] 0.005 | [4] 0.018 | [5] 0.021 | rosiglitazone 0.017 | [6] 0.04 | [7] -0.029

TRMT13 (UniProt Q9NUP7)
inactive: [1] -0.056 | volasertib -0.144 | [2] -0.103 | epoxomicin 0.004 | [3] -0.058 | [4] -0.035 | [5] -0.05 | rosiglitazone 0 | [6] -0.031 | [7] -0.032

TRMT112 (UniProt Q9UI30)
inactive: [1] 0.005 | volasertib -0.022 | [2] -0.024 | epoxomicin 0.053 | [3] 0 | [4] -0.032 | [5] 0.067 | rosiglitazone 0.015 | [6] -0.041 | [7] 0.033

TRIT1 (UniProt Q9H3H1)
inactive: [1] -0.064

TOMM7 (UniProt Q9P0U1)
inactive: [1] 0.061 | volasertib -0.131 | [2] -0.094 | epoxomicin 0.167 | [3] 0.062 | [4] -0.049 | [5] -0.016 | rosiglitazone -0.029 | [6] 0 | [7] 0.06

TNXB isoform 4 (UniProt P22105)
inactive: [1] -0.082

TRAPPC5 (UniProt Q8IUR0)
inactive: [1] -0.127 | volasertib -0.171 | [2] 0.103 | epoxomicin 0.082 | [3] 0.008 | [4] 0.033 | [5] -0.023 | rosiglitazone 0.063 | [6] -0.053 | [7] -0.113

TPM3 isoform 2 (UniProt P06753)
inactive: [1] -0.052 | volasertib 0.283 | [2] -0.073 | epoxomicin 0.059 | [3] 0.005 | [4] -0.005 | [5] -0.005 | rosiglitazone -0.005 | [6] -0.018 | [7] 0.012

TOR1AIP1 isoform 3 (UniProt Q5JTV8)
inactive: [1] -0.01 | volasertib 0.011 | [2] -0.008 | epoxomicin 0.004 | [3] 0 | [4] 0.007 | [5] -0.003 | rosiglitazone 0.017 | [6] -0.059 | [7] 0.07

TRIM29 (UniProt Q14134)
inactive: [1] 0.498

TRIP4 (UniProt Q15650)
inactive: [1] 0.025 | volasertib -0.22 | [2] 0.059 | epoxomicin -0.123 | [3] -0.019 | [4] -0.01 | [5] -0.009 | rosiglitazone 0.012 | [6] 0.032 | [7] -0.216

10 neighbouring entries out of the list so far, for reference:
TRAPPC10 (UniProt P48553)
inactive: [1] -0.034 | volasertib -0.144 | [2] 0.026 | epoxomicin -0.034 | [3] -0.024 | [4] -0.072 | [5] 0.007 | rosiglitazone 0.028 | [6] 0.008 | [7] 0

TPM4 isoform 2 (UniProt P67936)
inactive: [1] -0.044 | volasertib 0.021 | [2] -0.012 | epoxomicin 0.01 | [3] 0.005 | [4] 0.018 | [5] 0.021 | rosiglitazone 0.017 | [6] 0.04 | [7] -0.029

TRMT13 (UniProt Q9NUP7)
inactive: [1] -0.056 | volasertib -0.144 | [2] -0.103 | epoxomicin 0.004 | [3] -0.058 | [4] -0.035 | [5] -0.05 | rosiglitazone 0 | [6] -0.031 | [7] -0.032

TRMT112 (UniProt Q9UI30)
inactive: [1] 0.005 | volasertib -0.022 | [2] -0.024 | epoxomicin 0.053 | [3] 0 | [4] -0.032 | [5] 0.067 | rosiglitazone 0.015 | [6] -0.041 | [7] 0.033

TRIT1 (UniProt Q9H3H1)
inactive: [1] -0.064

TOMM7 (UniProt Q9P0U1)
inactive: [1] 0.061 | volasertib -0.131 | [2] -0.094 | epoxomicin 0.167 | [3] 0.062 | [4] -0.049 | [5] -0.016 | rosiglitazone -0.029 | [6] 0 | [7] 0.06

TNXB isoform 4 (UniProt P22105)
inactive: [1] -0.082

TRAPPC5 (UniProt Q8IUR0)
inactive: [1] -0.127 | volasertib -0.171 | [2] 0.103 | epoxomicin 0.082 | [3] 0.008 | [4] 0.033 | [5] -0.023 | rosiglitazone 0.063 | [6] -0.053 | [7] -0.113

TPM3 isoform 2 (UniProt P06753)
inactive: [1] -0.052 | volasertib 0.283 | [2] -0.073 | epoxomicin 0.059 | [3] 0.005 | [4] -0.005 | [5] -0.005 | rosiglitazone -0.005 | [6] -0.018 | [7] 0.012

TOR1AIP1 isoform 3 (UniProt Q5JTV8)
inactive: [1] -0.01 | volasertib 0.011 | [2] -0.008 | epoxomicin 0.004 | [3] 0 | [4] 0.007 | [5] -0.003 | rosiglitazone 0.017 | [6] -0.059 | [7] 0.07

Remaining list, next part.

TRAPPC9 isoform 2 (UniProt Q96Q05)
inactive: [1] 0.145 | volasertib -0.086 | [2] 0.008 | epoxomicin -0.003 | [3] -0.037 | [4] -0.054 | [5] -0.016 | rosiglitazone 0.04 | [6] 0.062 | [7] -0.027

TRAFD1 (UniProt O14545)
inactive: [1] -0.001 | volasertib 0.032 | [2] -0.004 | epoxomicin 0.041 | [3] 0.025 | [4] 0 | [5] -0.007 | rosiglitazone -0.027 | [6] -0.013 | [7] 0.067

TPRKB (UniProt Q9Y3C4)
inactive: [1] 0.023 | volasertib 0.068 | [2] 0.008 | epoxomicin -0.034 | [3] 0.025 | [4] -0.017 | [5] 0.086 | rosiglitazone -0.004 | [6] -0.055 | [7] 0.035

TPM1 isoform 4 (UniProt P09493)
inactive: [1] 0.011 | volasertib 0.056 | [2] -0.003 | epoxomicin 0.01 | [3] 0.021 | [4] -0.004 | [5] -0.01 | rosiglitazone 0.001 | [6] -0.046 | [7] 0.067

TRPV2 (UniProt Q9Y5S1)
inactive: [1] 0.021 | volasertib 0.074 | [2] 0.02 | epoxomicin 0.024 | [3] -0.044 | [4] -0.031 | [5] 0.057 | rosiglitazone 0.018 | [6] -0.055 | [7] 0.223

TRRAP (UniProt Q9Y4A5)
inactive: [1] 0.001 | volasertib -0.163 | [2] -0.03 | epoxomicin -0.009 | [3] 0.005 | [4] 0.01 | [5] -0.032 | rosiglitazone -0.02 | [6] 0.012 | [7] 0.07

TPM4, A0A2R8Y5V9
inactive: [1] 0.035 | volasertib 0.158 | [2] 0.011 | epoxomicin 0.004 | [3] -0.003 | [4] -0.001 | [5] -0.001 | rosiglitazone -0.028 | [6] -0.046 | [7] 0.043
